# In PMC12955996:
# The chains behind the UniProt entries cited, without tags or fusion partners. Where a name states a change or a piece, a line headed by the entry shows the natural chain unless it says otherwise.
# UniProt Q8BH61: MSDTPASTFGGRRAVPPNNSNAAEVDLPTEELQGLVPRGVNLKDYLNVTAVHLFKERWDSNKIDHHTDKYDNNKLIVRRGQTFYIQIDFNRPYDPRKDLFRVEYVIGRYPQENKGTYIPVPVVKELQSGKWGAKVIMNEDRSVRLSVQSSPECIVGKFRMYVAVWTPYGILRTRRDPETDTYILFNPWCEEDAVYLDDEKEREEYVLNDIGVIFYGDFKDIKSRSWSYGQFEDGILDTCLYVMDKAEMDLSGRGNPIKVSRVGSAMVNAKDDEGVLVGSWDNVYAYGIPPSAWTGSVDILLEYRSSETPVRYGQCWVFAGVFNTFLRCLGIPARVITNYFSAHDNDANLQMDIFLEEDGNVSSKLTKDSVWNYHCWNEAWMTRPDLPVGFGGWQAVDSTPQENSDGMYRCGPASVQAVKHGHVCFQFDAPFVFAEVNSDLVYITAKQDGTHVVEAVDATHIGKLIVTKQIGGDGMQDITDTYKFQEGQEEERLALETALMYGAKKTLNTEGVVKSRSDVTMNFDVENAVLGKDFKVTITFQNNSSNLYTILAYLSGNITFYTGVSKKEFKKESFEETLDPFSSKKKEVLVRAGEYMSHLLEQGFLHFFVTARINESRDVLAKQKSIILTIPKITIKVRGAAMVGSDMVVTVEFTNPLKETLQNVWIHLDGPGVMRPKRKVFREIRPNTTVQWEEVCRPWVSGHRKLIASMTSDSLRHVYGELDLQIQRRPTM
# UniProt P52480: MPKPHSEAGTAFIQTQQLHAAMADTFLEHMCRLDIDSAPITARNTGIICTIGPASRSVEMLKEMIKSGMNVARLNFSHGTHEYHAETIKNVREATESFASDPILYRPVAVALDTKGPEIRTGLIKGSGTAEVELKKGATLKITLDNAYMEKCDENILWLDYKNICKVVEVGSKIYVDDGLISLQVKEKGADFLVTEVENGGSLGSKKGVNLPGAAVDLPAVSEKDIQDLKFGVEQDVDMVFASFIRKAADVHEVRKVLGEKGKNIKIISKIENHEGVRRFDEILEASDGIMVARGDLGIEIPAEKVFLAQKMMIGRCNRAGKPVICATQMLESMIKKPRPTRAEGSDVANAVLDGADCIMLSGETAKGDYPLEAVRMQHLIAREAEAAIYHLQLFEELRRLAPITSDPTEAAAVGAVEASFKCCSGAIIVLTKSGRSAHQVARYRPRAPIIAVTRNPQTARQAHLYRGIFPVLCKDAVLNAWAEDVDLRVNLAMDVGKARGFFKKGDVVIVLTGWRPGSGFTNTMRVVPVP
# These are yes or no findings as the source states them, for the method shown. In cells and extracts the contact can be indirect. A result given as binding can be weak or reduced; the word gives no strength.
# Legend:
# Flag‐tagged F13A1 = Flag‐tagged F13A1 (UniProt Q8BH61); assay: co-IP; HEK293T co-transfected with Flag‐F13A1 and HA‐PKM2 (24 h), with or without ionomycin (2 µM, 12 h); anti‐Flag and anti‐HA magnetic beads, overnight at 4°C, Western blot
# [1] = biological target: Coagulation Factor XIII Subunit A (F13A1) (mouse (endogenous in BMDMs)) (UniProt Q8BH61); assay: co-IP; BMDM lysates, anti‐F13A1 antibody on Protein A/G magnetic beads, overnight at 4°C, Western blot; cells exposed 24 h to HCM or HCM‐PA; in one panel pretreated with BAPTA‐AM (5 µM, 2 h)
Substance,binding (Flag‐tagged F13A1),binding [1]
HA‐tagged PKM2 (from UniProt P52480 1-531),binds,–
pyruvate kinase M2 isoform (PKM2) (from UniProt P52480 1-531),–,binds
